In PMC8290545 one finds binding data, which are given here for one molecule.

Results are given in words; binding and its absence hold for the method and conditions named. Binding calls can cover weak binding; strength is not graded here. Where a sequence is shown, tags or fusion partners need not be part of it.

The target in this assay is GST-tagged EVH1 domain of UNC-34 (C. elegans). The assay is described as follows: pull-down; GST-UNC-34 EVH1 as bait (200 pmol) on 20 µL GSH-Sepharose beads, 200 to 2,000 pmol prey in 1 mL; 50 or 100 mM NaCl, 10 mM HEPES pH 7.0, 5% glycerol, 5 mM 2-mercaptoethanol, 0.05% Triton X-100; 4 °C, 30 min; three washes; eluted with glutathione; SDS-PAGE, Coomassie blue; both purified.

B1: MBP-tagged full-length Abi (protein, UniProt Q10929 1-469)
chain: MSVNDLQELIERRIPDNRAQLETSHANLQQVAAYCEDNYIQSNNKSAALEESKKFAIQALASVAYQINKMVTDLHDMLALQTDKVNSLTNQVQYVSQVVDVHKEKLARREIGSLTTNKTLFKQPKIIAPAIPDEKQRYQRTPIDFSVLDGIGHGVRTSDPPRAAPISRATSSISGSSPSQFHNESPAYGVYAGERTATLGRTMRPYAPSIAPSDYRLPQVTPQSESRIGRQMSHGSEFGDHMSGGGGSGSQHGSSDYNSIYQPDRYGTIRAGGRTTVDGSFSIPRLSSAQSSAGGPESPTFPLPPPAMNYTGYVAPGSVVQQQQQQQMQQQNYGTIRKSTVNRHDLPPPPNSLLTGMSSRMPTQDDMDDLPPPPESVGGSSAYGVFAGRTESYSSSQPPSLFDTSAGWMPNEYLEKVRVLYDYDAAKEDELTLRENAIVYVLKKNDDDWYEGVLDGVTGLFPGNYVVPV
Turning to B1, the binding entry is “binds”.
